Measured values as given in PMC6657668, “Porcine Beta-Defensin 2 Provides Protection Against Bacterial Infection by a Direct Bactericidal Activity and Alleviates Inflammation via Interference With the TLR4/NF-κB Pathway” (Frontiers in Immunology, 2019).
These are yes or no findings as the source states them, for the method shown. For part of these data: Binding seen in cells or lysates may run through a third protein. Some binding calls cover weakened binding; strength is not graded here.

By UniProt entry, the sequences of proteins in these tests, tags left out. Residues count along the entry.
UniProt P02769, residues 25-607: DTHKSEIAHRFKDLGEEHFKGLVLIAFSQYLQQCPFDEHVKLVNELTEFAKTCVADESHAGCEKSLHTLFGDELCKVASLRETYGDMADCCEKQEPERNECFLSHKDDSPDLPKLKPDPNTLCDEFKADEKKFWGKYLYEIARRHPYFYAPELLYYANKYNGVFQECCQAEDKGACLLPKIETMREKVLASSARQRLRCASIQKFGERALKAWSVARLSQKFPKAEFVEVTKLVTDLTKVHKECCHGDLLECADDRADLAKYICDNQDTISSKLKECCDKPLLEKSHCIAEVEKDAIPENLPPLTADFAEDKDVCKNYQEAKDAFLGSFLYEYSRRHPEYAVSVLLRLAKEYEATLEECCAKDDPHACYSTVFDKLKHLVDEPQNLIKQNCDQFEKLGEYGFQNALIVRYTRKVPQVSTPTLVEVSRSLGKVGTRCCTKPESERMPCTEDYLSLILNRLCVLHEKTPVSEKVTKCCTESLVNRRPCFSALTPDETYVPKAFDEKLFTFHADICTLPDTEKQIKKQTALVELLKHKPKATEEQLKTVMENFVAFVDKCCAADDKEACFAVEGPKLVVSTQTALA

Key:
[1] = molecular target: T1, Porcine beta-defensin 2 (PBD-2), synthetic mature peptide (pig); assay: co-IP; RAW 264.7 cells treated with synthetic PBD-2 (1, 10, 30 and 50 μg/ml) for 16 h and lysed; lysate precipitated with PBD-2 antisera (control: mouse IgG) and protein A/G beads; TLR4 detected by Western blot; only the target purified
T1 sequence (peptide): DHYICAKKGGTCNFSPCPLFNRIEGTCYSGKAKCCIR

[2] = molecular target: T2, TLR4, purified recombinant protein (Cloud-clone # RPA753Mu01) (UniProt Q9QUK6 26-638); assay: far-Western, overlay or dot blot; TLR4 and BSA run on SDS-PAGE and transferred to a PVDF membrane, blocked with BSA, incubated with 10 μg/ml PBD-2 in PBST at 37°C for 2 h; detected with anti-PBD-2 antisera; both purified
T2 construct: Toll-like receptor 4 (TLR4), bought recombinant protein; the vendor's data sheet is needed; also called purified TLR4; source: bought: Cloud-clone (# RPA753Mu01)
T2 sequence (looked up): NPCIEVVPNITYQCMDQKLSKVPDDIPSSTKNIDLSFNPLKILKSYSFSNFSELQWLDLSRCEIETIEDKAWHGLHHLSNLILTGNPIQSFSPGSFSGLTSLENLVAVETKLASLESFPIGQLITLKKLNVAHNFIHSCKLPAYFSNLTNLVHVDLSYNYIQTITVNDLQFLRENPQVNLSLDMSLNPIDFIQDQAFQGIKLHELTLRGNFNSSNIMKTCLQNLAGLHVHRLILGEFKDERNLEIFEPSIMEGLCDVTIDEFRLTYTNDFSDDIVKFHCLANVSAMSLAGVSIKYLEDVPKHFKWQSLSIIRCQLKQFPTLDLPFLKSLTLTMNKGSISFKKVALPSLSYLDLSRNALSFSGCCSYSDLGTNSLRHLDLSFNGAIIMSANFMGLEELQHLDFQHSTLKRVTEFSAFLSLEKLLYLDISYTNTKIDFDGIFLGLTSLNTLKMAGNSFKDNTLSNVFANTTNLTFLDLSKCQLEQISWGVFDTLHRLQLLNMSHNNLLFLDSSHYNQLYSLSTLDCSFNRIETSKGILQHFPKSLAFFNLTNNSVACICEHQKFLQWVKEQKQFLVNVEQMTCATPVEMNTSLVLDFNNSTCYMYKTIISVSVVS

[3] = molecular target: Bovine serum albumin (BSA) (bovine) (UniProt P02769); assay: as above

Molecule: TLR4, endogenous in RAW 264.7 cells (from UniProt Q9QUK6 26-835) (receptor)
- binding [1]: binds

B1: Porcine beta-defensin 2 (PBD-2), synthetic mature peptide (peptide)
peptide: T1 sequence (peptide)
- binding [2]: binds
- binding [3]: no binding (tested: 10 μg/ml PBD-2)
